Measured values as given in PMC12005277.
These are yes or no findings as the source states them, for the method shown. In cells and extracts the contact can be indirect. A result given as binding can be weak or reduced; the word gives no strength.

By UniProt entry, the sequences of proteins in these tests, tags left out. Where a name states a change or a piece, a line headed by the entry shows the natural chain unless it says otherwise.
UniProt Q9UMX0: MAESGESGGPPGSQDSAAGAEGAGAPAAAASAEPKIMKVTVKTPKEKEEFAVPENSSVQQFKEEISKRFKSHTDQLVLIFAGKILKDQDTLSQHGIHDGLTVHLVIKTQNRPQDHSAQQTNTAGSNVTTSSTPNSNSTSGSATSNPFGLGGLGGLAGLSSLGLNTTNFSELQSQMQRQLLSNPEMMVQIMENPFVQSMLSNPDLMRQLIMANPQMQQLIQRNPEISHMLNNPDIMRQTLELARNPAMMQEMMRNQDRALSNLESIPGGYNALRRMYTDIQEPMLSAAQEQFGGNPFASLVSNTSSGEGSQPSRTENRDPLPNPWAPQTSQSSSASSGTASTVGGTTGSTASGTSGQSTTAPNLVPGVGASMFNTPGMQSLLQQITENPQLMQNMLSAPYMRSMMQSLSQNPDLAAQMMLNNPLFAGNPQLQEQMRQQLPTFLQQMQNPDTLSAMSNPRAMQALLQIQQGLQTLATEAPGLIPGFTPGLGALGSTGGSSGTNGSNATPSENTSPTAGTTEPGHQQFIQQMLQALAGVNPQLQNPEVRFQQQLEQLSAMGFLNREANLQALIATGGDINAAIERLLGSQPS
UniProt P05496: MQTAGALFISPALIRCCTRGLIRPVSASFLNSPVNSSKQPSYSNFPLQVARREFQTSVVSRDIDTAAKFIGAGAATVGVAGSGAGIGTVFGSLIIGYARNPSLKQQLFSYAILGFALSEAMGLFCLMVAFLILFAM

How the values were obtained:
[1] = biological target: Myc-tagged UBQLN1 (WT) (human) (UniProt Q9UMX0); test: co-IP; anti-Myc agarose for Myc-UBQLN1 or Myc-RNF126; HEK293T cells (wild type or BAG6 knockout) treated with 20 μM MG132 for 2 h; 50 mM Tris-HCl, 150 mM NaCl, 2 mM MgCl2, 0.05% digitonin, 4 °C, 2 h
[2] = biological target: ATP5G1-3xFLAG (ATP synthase F(0) complex subunit C1, precursor) (human) (UniProt P05496); test: co-IP; anti-FLAG agarose for FLAG-tagged ATP5G1; HEK293T lysates (Figure 3E: BAG6 knockout cells, with or without 20 μM MG132 for 2 h); 50 mM Tris-HCl, 150 mM NaCl, 2 mM MgCl2, 0.05% digitonin, 4 °C, 2 h

Substance | binding [1] | binding [2]
ATP5G1-3xFLAG (ATP synthase F(0) complex subunit C1, precursor) (from UniProt P05496) | binds | –
ubiquilin 1 (UBQLN1) in HEK293T lysate (from UniProt Q9UMX0 1-589) | – | binds
